Reference: PubChem BioAssay AID1688 (National Center for Advancing Translational Sciences (NCATS), 2009)
The campaign covered roughly 220,000 compounds. About 2,400 (1.1%) were called active. The inconclusive results got no clear call from the source; some entries with a clear call stand among them for comparison. Calls follow the shape of the dose curve; as a rule, active = well fitted inhibition curve with a large enough effect; inconclusive = small, poorly fitted or top-dose-only effect, or effect the other way; inactive = no such curve, though single readings can be large or run the other way. A potency beside an inconclusive call is a rough fit, not a confirmed value.

Experiment: qHTS Multiplex Assay to Identify Dual Action Probes in a Cell Model of Huntington: Aggregate Formation (GFP); also: nearly all actives have a fitted effect of over 60% in size
Settings: PC12 HttQ103-GFP aggregates, Acumen cytometry, 40 h; activity change, negative = inhibition: at 46.1 µM (top of the series) unless noted
Summary of the method: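 Quantitative HTS on tebufenozide-induced (100 nM) PC12 cells stably expressing polyQ103 Huntingtin exon 1–GFP. Reduction of bright GFP aggregates, detected by laser scanning cytometry after lysis, identified actives across the titration.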
% is scaled to controls: 0 for no effect and ±100 for the full control effect; potency is read from the fitted curve at half-maximal effect.

Compound	Potency	activity change, negative = inhibition
Cc1ccc(NC(=O)CSc2nc(O)c(Cc3ccccc3)c(=O)n2-c2ccccc2)cc1	inconclusive: 4.47 µM [activator, full curve, poor fit]	
CC1CCCC(NC(=O)COC(=O)c2ccccc2Sc2ccccc2C#N)C1C (centres undefined)	inconclusive: 1 µM [activator, full curve, poor fit]	
C/C(Cl)=C\Cn1c(NCCc2ccccc2)nc2c1c(=O)n(C)c(=O)n2C	active: 4.47 µM	
Cn1c(=O)c2ccccc2n(Cc2ccccc2F)c1=O	inconclusive: 25.1 µM [inhibitor, single point]	
COc1cc2ncnc(NCc3ccccc3Cl)c2cc1OC		inactive: 4.88% [at 9.22 µM]
Cc1nnn(-c2nonc2N)c1C(=O)N/N=C/c1ccccc1O	inconclusive: 4.47 µM [inhibitor, partial curve]	
CCn1c(Cc2ccccc2)nnc1SCC(=O)Nc1ccccc1N1CCOCC1	inconclusive: 35.5 µM [inhibitor, single point]	
COc1ccc(/C=C2/C(=O)OCc3cc(OC)c(OC)cc32)cc1	inconclusive: 12.6 µM [activator, single point]	
Cc1cccc(OCCOc2ccccc2C=C(C#N)C#N)c1	inconclusive: 15.8 µM [activator, single point]	
Cc1ccccc1Nc1ncnc(N)n1	inconclusive: 20 µM [activator, single point]	
Cc1ccc(CSCCNS(=O)(=O)c2ccccc2)cc1	inconclusive: 0.891 µM [activator, full curve, poor fit]	
CC(C)c1nc(-c2ccccn2)no1	inconclusive: 1 µM [inhibitor, single point]	
O=[N+]([O-])c1cc(CN2CCN(c3cccc(C(F)(F)F)c3)CC2)c2cccnc2c1O	active: 8.91 µM	
O=C(Cc1ccc2c(c1)OCCO2)c1c(O)cc(O)cc1O	inconclusive: 35.5 µM [inhibitor, single point]	
COc1cccc2c(C)c(C(=O)O)[nH]c12	inconclusive: 0.631 µM [inhibitor, full curve, poor fit]	
CN(C)C(=O)c1cc2cc([N+](=O)[O-])ccc2s1		inactive: 0.0833%
Cc1ccc(-c2nc(CSCC(=O)N3CCN(c4ccccn4)CC3)c(C)o2)cc1	inconclusive: 15.8 µM [inhibitor, single point]	
Cc1cc(C)c2nc(-c3ccccn3)cc(C(=O)NCc3ccco3)c2c1	inconclusive: 7.94 µM [activator, partial curve]	
COCCOCC(O)CN1CCN(c2ccc(C)cc2)CC1 (centres undefined)		inactive: 20.9%
Cn1cc(C(=O)c2ccc(Cl)cc2Cl)cc1C(=O)N/N=C(\N)COc1ccc(F)cc1	active: 17.8 µM	
CC1CCN(CCCNC(=O)c2ccc(Cn3c(=S)[nH]c4ccc(Br)cc4c3=O)cc2)CC1	inconclusive: 14.1 µM [inhibitor, single point]	
COc1cccc(-c2nc(NC(C)(C)C)c3ccccc3n2)c1O	active: 35.5 µM	

Compound	Potency	activity change, negative = inhibition
CCN(CC)c1nc2c(s1)C(=O)CC(C)(C)C2		inactive: -10.1% [at 9.22 µM]
Cc1cccc(NC(=S)N/N=C/c2ccc([N+](=O)[O-])s2)c1	inconclusive: 15.8 µM [inhibitor, single point]	
Cc1ccc2[nH]c(C(=O)NN=C3CCCCC3)c(-c3ccccc3)c2c1	inconclusive: 1.58 µM [activator, full curve, poor fit]	
COCc1[nH]nc2c1C1(C(=O)Nc3ccc(F)cc31)C(C#N)=C(N)O2 (centres undefined)		inactive: 9.54%
Cc1ccc(OCc2nc(C#N)c(NCc3ccc4c(c3)OCO4)o2)cc1	inconclusive: 25.1 µM [inhibitor, single point]	
Cc1ccc2oc3c(c(=O)c2c1)C(c1ccc(F)cc1)N(CCCN1CCOCC1)C3=O (centres undefined)	inconclusive: 6.31 µM [activator, single point]	
O=C(CSC1=N/C(=C/c2ccc(Cl)c(Cl)c2)C(=O)N1c1ccccc1F)NC1CC1	inconclusive: 20 µM [activator, partial curve]	
Cc1nn(CCc2nn[nH]n2)c2nc(C(F)(F)F)cc(C(F)(F)F)c12		inactive: -4.59%
Cc1ccc(C2CC(c3cccc(Br)c3)Nc3nnnn32)cc1 (centres undefined)	inconclusive: 35.5 µM [inhibitor, single point]	
CCC(C)COC(=O)C(C#N)c1nc2ccccc2nc1N1CCCCC1 (centres undefined)	inconclusive: 12.6 µM [inhibitor, single point]	
O=CN/N=C/c1c(O)ccc2ccccc12	inconclusive: 2.51 µM [inhibitor, single point]	
Clc1cccc(Cl)c1CNc1ccc(N2CCCC2)cc1	inconclusive: 35.5 µM [inhibitor, single point]	
CCOC(=O)c1cnn(-c2ccccc2)c1NC(=O)C(F)(F)C(F)(F)C(F)(F)F	inconclusive: 25.1 µM [inhibitor, single point]	
CCc1ccc(C2=Nn3c(nnc3-c3cccs3)SC2)cc1	inconclusive: 35.5 µM [activator, single point]	
CNC1=C(N(C(C)=O)c2ccc(Br)cc2)C(=O)c2ccccc2C1=O	active: 11.2 µM	
O=C(N/N=C/c1cccc(F)c1)c1c(O)c2ccccc2[nH]c1=O	inconclusive: 5.62 µM [inhibitor, single point]	
CCOC(=O)Cc1c(C)nc2c(-c3ccccc3)c(-c3ccccc3)[nH]n2c1=O	inconclusive: 35.5 µM [inhibitor, single point]	
CC(C)c1noc2ncc(C(=O)c3cc(Cl)cc(Cl)c3O)cc12	active: 11.2 µM	
CCc1noc(C)c1C(=O)N1CCCC(C(=O)c2ccc(OC)c(F)c2)C1 (centres undefined)		inactive: -3.58% [at 9.22 µM]
O=C(NC1CCCCC1)C(c1cccnc1)N(C(=O)CCl)c1ccccc1Cl (centres undefined)	inconclusive: 5.01 µM [inhibitor, partial curve, poor fit]	
O=C(Nc1cccc(NC(=O)C2C3CC4OC(=O)C2C4C3)c1)c1ccccc1 (centres undefined)		inactive: -1.63% [at 9.22 µM]
CCN(c1ccccc1)c1nc2ccsc2c(=O)s1		inactive: -16%

Single records (already shown):
O=C(CSC1=N/C(=C/c2ccc(Cl)c(Cl)c2)C(=O)N1c1ccccc1F)NC1CC1 is entered as Potency: inconclusive: 20 µM [activator, partial curve]
Cc1ccc(C2CC(c3cccc(Br)c3)Nc3nnnn32)cc1 (centres undefined) is entered as Potency: inconclusive: 35.5 µM [inhibitor, single point]
COCc1[nH]nc2c1C1(C(=O)Nc3ccc(F)cc31)C(C#N)=C(N)O2 (centres undefined) is entered as activity change, negative = inhibition: inactive: 9.54%
CCN(c1ccccc1)c1nc2ccsc2c(=O)s1 is entered as activity change, negative = inhibition: inactive: -16%
